Results deposited as PubChem BioAssay AID1259405 (NCATS, 2018).

Assay: 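Silenced genes that increase secreted GFP made by CHO cells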 (primary screen)
Cells: Chinese hamster CHO-K1 ovary cells with stable secreted eGFP expression
Reagents: single siRNA against mouse genes, 0.8 pmol siRNA per well (2 µl of 400 nM stock)
Time to read-out: 3 days
Read-out: 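Per-well intracellular GFP measured by laser scanning cytometry, plus viability from ATP luminescence, each relative to plate median of non-targeting control wells, in %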
Scale: GFP, % of control: higher = more GFP per well, higher productivity
Active means: 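Called active when intracellular GFP, relative to negative control, is at or above 120%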
The deposit covers about 50,000 reagents; below is a part drawn at random. Of all reagents, about 4,000 (8%) got an active call. 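Mouse siRNA library applied to hamster cells; one well for each siRNA.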 Reagents against one gene are numbered here. Further read-outs or replicates are left out here.

GFP, % of control, by target and reagent
Zfp36: #1 153 active; #2 105 inactive; #3 108 inactive; #4 132 active; #5 87.7 inactive
Palb2: #1 32.1 inactive; #2 82.9 inactive; #3 64.5 inactive
Apobr: #1 110 inactive; #2 73 inactive; #3 92.5 inactive
Msx1: #1 89.9 inactive; #2 104 inactive; #3 86 inactive
Or2q1: #1 39.9 inactive; #2 57.1 inactive; #3 159 active
Mapk8: #1 97.6 inactive; #2 61.7 inactive; #3 97 inactive
Dnah5: #1 94.6 inactive; #2 60 inactive
Dop1b: #1 70.2 inactive; #2 67.9 inactive; #3 80.3 inactive
Gorasp2: #1 103 inactive; #2 79.9 inactive; #3 92.3 inactive
Tmem63c: #1 54.7 inactive; #2 116 inactive; #3 75.2 inactive
Gstk1: #1 56.1 inactive; #2 45 inactive
Ipcef1: #1 109 inactive; #2 46.2 inactive; #3 147 active
